Source: the supplement of paper PMC11732987, “Enantioselective OTUD7B fragment discovery through chemoproteomics screening and high-throughput optimisation” (Communications Chemistry, 2025)
Some of the results follow. The data scatter; read single values as rough.

The chains behind the UniProt entries cited, without tags or fusion partners. Where a name states a change or a piece, a line headed by the entry shows the natural chain unless it says otherwise. Residues count along the entry.
UniProt P63010: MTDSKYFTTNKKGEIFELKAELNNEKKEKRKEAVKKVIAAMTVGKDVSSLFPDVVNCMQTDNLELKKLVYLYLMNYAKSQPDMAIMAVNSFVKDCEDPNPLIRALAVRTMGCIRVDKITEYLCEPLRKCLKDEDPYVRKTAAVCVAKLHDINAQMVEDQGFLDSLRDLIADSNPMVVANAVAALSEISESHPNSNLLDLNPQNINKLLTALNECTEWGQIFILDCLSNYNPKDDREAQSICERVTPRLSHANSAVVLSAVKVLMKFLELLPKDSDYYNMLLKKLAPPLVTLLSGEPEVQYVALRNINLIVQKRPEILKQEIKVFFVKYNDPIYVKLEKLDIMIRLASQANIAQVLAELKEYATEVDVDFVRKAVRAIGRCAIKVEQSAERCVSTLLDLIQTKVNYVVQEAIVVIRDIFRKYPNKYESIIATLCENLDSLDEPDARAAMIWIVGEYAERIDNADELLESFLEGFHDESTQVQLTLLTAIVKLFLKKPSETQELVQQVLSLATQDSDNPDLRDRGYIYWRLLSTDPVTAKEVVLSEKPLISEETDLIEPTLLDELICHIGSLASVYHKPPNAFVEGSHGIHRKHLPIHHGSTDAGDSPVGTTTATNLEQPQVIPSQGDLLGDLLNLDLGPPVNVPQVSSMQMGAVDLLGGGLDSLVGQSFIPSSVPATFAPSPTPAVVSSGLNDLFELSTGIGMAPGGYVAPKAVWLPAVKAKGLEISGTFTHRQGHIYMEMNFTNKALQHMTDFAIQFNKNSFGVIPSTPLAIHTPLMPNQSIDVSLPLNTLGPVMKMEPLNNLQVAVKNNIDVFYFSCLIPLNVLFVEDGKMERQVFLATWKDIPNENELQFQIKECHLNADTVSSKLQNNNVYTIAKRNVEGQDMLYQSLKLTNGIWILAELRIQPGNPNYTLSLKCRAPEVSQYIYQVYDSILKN
UniProt Q9NZN5: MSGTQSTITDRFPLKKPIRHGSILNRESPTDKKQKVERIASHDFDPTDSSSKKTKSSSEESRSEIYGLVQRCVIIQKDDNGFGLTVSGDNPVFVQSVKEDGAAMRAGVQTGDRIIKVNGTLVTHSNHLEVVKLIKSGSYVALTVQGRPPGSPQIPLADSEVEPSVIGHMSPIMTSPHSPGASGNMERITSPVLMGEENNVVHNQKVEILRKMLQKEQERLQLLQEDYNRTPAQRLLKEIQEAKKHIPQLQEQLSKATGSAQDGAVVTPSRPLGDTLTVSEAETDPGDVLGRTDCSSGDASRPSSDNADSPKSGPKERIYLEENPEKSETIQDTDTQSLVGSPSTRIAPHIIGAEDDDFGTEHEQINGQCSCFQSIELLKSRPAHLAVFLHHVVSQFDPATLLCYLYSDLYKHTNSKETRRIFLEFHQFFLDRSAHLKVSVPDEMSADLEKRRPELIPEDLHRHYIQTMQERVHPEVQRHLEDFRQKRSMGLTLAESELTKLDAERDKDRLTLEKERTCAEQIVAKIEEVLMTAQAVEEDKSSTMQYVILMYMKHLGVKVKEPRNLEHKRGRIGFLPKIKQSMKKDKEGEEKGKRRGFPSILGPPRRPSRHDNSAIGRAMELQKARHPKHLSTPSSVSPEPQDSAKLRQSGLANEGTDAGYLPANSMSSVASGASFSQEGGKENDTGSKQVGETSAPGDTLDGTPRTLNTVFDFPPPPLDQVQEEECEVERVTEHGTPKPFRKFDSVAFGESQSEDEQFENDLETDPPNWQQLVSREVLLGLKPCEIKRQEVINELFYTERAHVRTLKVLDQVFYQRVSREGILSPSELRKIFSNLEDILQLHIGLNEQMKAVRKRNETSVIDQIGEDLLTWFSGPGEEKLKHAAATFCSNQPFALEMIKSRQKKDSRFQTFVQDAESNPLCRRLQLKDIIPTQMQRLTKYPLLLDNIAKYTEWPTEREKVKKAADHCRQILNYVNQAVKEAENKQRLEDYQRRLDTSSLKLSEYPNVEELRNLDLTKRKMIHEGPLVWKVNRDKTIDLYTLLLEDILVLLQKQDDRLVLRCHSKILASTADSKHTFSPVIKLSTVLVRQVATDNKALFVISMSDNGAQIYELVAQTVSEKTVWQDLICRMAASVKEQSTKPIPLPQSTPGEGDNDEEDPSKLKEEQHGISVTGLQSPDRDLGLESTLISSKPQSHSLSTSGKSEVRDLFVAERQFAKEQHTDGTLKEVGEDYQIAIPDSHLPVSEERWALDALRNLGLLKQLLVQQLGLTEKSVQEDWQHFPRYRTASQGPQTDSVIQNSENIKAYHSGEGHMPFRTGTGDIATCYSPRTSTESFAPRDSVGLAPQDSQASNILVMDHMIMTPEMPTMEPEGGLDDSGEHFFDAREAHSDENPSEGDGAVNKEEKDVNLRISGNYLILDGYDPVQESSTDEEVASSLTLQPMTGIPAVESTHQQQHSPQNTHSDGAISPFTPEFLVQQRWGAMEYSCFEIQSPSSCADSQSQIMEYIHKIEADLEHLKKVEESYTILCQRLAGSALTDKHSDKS
UniProt Q6UB99: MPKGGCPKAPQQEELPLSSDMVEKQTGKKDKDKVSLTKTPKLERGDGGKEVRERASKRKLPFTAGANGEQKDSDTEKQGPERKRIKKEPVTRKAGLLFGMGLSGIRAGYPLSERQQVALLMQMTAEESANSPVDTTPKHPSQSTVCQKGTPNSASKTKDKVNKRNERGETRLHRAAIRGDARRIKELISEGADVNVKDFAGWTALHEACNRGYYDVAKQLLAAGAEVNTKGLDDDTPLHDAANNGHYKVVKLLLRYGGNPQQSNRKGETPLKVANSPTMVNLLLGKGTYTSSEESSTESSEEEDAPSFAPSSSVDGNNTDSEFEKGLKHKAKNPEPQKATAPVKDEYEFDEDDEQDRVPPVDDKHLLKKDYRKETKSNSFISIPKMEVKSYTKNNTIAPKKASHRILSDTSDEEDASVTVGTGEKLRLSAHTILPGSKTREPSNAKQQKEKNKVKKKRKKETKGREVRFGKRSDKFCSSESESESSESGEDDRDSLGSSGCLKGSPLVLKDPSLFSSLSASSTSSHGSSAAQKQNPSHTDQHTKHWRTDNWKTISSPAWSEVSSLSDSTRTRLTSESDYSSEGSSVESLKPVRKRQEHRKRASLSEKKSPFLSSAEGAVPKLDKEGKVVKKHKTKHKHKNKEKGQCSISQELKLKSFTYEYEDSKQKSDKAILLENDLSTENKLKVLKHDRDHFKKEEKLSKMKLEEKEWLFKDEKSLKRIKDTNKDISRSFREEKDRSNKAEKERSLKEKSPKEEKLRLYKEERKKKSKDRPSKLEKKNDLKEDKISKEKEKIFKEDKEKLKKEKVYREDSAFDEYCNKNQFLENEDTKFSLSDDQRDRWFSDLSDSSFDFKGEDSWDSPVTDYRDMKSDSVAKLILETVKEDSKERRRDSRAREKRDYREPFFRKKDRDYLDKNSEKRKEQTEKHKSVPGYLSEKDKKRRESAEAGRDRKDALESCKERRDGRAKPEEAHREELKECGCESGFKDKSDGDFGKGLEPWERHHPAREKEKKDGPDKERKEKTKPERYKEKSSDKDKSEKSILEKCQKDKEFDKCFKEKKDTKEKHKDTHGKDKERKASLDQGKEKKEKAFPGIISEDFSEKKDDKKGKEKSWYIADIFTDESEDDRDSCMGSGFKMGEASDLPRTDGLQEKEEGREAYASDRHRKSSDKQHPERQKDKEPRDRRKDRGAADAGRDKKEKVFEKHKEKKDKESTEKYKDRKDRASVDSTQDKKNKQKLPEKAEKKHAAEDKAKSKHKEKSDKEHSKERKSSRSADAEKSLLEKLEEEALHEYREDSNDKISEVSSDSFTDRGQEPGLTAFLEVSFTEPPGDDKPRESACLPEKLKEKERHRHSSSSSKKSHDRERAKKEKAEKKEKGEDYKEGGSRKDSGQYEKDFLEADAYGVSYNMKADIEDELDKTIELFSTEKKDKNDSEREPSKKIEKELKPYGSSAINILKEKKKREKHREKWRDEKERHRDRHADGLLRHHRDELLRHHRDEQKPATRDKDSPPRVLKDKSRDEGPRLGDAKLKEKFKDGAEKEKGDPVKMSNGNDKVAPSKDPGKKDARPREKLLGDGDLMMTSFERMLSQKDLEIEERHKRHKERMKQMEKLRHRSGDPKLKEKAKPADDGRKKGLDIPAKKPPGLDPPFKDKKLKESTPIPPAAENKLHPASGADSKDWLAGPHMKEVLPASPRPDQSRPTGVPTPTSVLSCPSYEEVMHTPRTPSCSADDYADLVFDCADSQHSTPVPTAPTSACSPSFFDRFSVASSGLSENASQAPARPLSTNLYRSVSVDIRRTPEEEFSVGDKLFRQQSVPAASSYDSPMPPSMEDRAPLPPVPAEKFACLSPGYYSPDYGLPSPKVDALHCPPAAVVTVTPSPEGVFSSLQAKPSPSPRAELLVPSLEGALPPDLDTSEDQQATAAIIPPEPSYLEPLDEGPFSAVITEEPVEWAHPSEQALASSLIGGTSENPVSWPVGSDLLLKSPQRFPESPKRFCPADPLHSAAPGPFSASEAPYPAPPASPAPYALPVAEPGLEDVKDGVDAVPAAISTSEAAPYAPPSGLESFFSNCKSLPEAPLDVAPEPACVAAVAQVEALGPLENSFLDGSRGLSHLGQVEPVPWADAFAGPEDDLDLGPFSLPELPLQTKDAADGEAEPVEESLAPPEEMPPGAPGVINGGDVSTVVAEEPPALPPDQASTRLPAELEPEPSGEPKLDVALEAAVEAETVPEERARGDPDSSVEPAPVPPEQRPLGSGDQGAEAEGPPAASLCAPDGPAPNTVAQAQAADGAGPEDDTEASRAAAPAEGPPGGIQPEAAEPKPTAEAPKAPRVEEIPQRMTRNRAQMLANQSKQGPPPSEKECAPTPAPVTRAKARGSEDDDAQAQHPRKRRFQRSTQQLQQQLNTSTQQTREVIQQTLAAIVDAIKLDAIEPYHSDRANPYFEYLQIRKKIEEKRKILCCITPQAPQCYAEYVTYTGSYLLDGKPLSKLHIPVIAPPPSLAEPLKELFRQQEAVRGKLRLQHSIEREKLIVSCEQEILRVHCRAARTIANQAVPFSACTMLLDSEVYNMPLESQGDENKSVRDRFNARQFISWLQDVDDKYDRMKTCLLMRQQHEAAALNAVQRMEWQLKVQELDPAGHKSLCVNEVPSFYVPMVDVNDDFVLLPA
UniProt Q15052: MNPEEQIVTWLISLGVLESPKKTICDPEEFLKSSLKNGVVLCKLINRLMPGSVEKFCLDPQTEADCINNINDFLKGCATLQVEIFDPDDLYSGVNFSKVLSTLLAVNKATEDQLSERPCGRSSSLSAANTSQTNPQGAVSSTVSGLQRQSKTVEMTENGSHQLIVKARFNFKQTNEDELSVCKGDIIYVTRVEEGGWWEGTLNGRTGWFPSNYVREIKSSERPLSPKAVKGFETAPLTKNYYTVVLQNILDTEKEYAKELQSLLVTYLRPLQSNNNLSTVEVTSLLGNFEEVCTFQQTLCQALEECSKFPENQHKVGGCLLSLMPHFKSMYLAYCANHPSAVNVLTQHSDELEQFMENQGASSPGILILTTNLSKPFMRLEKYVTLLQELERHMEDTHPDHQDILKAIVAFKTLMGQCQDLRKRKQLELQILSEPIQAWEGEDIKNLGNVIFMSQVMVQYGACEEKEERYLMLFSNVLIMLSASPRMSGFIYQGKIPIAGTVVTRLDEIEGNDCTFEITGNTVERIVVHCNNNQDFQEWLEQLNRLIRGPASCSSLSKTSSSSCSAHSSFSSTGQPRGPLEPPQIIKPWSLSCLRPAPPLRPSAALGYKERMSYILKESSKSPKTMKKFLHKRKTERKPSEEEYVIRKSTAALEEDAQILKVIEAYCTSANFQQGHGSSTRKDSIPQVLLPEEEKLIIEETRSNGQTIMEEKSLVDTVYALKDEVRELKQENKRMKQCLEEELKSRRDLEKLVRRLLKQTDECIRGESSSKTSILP
UniProt O75179, 556-581: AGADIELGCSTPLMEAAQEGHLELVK
UniProt O95376: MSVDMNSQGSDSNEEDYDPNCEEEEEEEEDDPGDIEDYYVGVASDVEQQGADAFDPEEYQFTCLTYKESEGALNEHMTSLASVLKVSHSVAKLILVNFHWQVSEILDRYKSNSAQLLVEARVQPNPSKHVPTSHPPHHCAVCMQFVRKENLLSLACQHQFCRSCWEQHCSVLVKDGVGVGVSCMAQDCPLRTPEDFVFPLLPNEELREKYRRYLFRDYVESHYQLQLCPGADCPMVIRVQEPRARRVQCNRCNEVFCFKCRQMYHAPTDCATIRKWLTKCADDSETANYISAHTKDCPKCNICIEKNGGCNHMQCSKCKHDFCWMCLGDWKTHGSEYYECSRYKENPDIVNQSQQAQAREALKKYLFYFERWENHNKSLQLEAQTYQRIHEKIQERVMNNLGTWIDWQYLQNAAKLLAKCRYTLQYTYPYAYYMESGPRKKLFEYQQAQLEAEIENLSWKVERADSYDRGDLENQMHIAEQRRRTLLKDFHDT
UniProt P61966: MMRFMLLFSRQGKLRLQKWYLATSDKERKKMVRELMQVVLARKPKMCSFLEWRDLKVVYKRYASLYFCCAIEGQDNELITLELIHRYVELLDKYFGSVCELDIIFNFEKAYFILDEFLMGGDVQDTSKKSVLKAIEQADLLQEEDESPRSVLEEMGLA

Tests used:
[1] = compound: ClCC(=O)N[C@@H]1CCCc2ccccc12; assay: log2 mean competition ratio of IA-DTB cysteine labelling (DMSO/compound) (log2 ratio); higher = stronger cysteine engagement by compound; details: treatment time: 4 h, cell line lysate: HEK293T
Protocol: (§1)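 IA-DTB competitive cysteine chemoproteomics in HEK293T RIPA lysate. Lysates were treated with compound 29 or 30 at 50 or 200 µM for 4 h, then IA-DTB (500 µM, 1 h), trypsin-digested, NeutrAvidin-enriched and analysed by diaPASEF. Competition ratio = intensity DMSO / intensity compound (n=4 treated, n=64 DMSO); binding: mean log2 CR ≥ 1 and p ≤ 0.05 plus QC filters. Target is the cysteine site.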

[2] = compound: ClCC(=O)N[C@H]1CCCc2ccccc12; assay: as above; details: treatment time: 4 h, cell line lysate: HEK293T
Protocol: as §1

Target	log2 mean competition ratio ([1]; 50 µM)	log2 mean competition ratio ([1]; 200 µM)	log2 mean competition ratio ([2]; 50 µM)	log2 mean competition ratio ([2]; 200 µM)
AP2B1 C380 (UniProt P63010)	0.106	0.191	-0.077	0.139
ARHGAP21 C1700 (UniProt Q5T5U3)	0.597	0.397	0.173	0.477
ARPC2 C120 (UniProt O15144)	0.395	0.239	-0.0769	0.443
ARMC8 C275	-0.0261	0.227	0.0504	0.429
ARHGEF12 C1325 (UniProt Q9NZN5)	-0.014	-0.0182	0.0175	-0.118
ARHGAP12 C199 (UniProt Q8IWW6)	-0.0209	0.028	-0.301	-0.23
ANKRD11 C1339 (UniProt Q6UB99)	-0.118	-0.288	-0.35	0.149
ARHGEF40 C1233 (UniProt Q8TER5)	0.0155	0.0765	0.0657	0.243
ARHGEF6 C25 (UniProt Q15052)	-0.318	0.201	-0.553	0.217
API5 C234 (UniProt Q9BZZ5)	-0.462	0.509	0.0146	0.558
APAF1 C8 (UniProt O14727)	0.147	-0.118	-0.192	-0.177
ARHGAP32 C1872 (UniProt A7KAX9)	0.0365	0.13	-0.551	0.238
ANKRD17 C564 (UniProt O75179)	0.17	0.262	-0.119	-0.0782
ARHGAP11A C908 (UniProt Q6P4F7)	-0.0845	0.0683	-0.000656	0.0271
AP1G1 C392	-0.342	-0.328	0.268	-0.474
AP2B1 C95 (UniProt P63010)	-0.15	-0.101	-0.0268	0.0933
ARHGEF6 C553 (UniProt Q15052)	0.447	0.253	0.185	0.33
ANKMY2 C62 (UniProt Q8IV38)	0.264	-0.145	-0.133	-0.0748
ARFRP1 C154 (UniProt Q13795)	-0.199	0.26	-0.0752	0.0425
ARIH2 C280 (UniProt O95376)	-0.0535	-0.113	-0.472	-0.112
AP1S1 C47 (UniProt P61966)	0.461	-0.0288	0.159	0.254
AP2B1 C241 (UniProt P63010)	-0.106	-0.123	0.189	0.0248
ANKRD6 C613	-0.248	-0.0124	-0.618	0.0275
ARCN1 C479 (UniProt P48444)	-0.325	-0.295	-0.337	-0.0485

2 entries from above, set out differently.
Target,log2 mean competition ratio ([1]; 50 µM),log2 mean competition ratio ([1]; 200 µM),log2 mean competition ratio ([2]; 50 µM),log2 mean competition ratio ([2]; 200 µM)
AP2B1 C380 (UniProt P63010),0.106,0.191,-0.077,0.139
ARHGAP11A C908 (UniProt Q6P4F7),-0.0845,0.0683,-0.000656,0.0271
